Results on 13 molecules are retold here after patent EP4814011A1 (Shanghai Huaota Biopharmaceutical Co., Ltd., dated 2026).

Chains of the proteins cited; added tags and fusions are not shown. Residues count along the entry.
UniProt Q969D9, residues 29-159: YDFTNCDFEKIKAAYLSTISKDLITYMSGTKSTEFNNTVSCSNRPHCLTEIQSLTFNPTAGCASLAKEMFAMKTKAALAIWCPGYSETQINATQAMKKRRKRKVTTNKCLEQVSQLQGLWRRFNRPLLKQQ

For experiment [1], the target named is human TSLP with His tag (ACRO, TSP-H52Ha) (human) (UniProt Q969D9). The experiment in a line: SPR. In general terms: In SPR one partner is held on a chip, and binding of the other changes the refractive index at the surface.
Experiment [2] concerns the target human TSLP on human TSLP-expressing cells (Baf3-hu-TSLP-3G11, Huabo Biopharm) (human) (UniProt Q969D9). Description: flow cytometry on Baf3-hu-TSLP-3G11 cells. A general note: Flow cytometry measures light scatter and fluorescence of single cells or particles in a stream.

These are yes or no findings as the source states them, for the method shown. Some results given as binding are weak or reduced against the parent protein; the word gives no strength.

B1: 900792-huH2L2 (antibody, human IgG1, kappa, L234A L235A, V domains shown)
VH: QVQLVQSGAEVKKPGASVKVSCKASGYAFTNYLIEWVRQAPGQGLEWMGIINPESGDTYYAQKFQGRVTMTADKSTSTAYMELSSLRSEDSAVYFCAKESLTGSSYDYWGQGTTLTVSS
VL: DIQMTQSPSSLSASVGDRVTITCRASENIYSNLVWYQQKPGKAPQLLVYGARNLQSGVPSRFSGSGSGTQFSLTISSLQPEDFATYYCQHFYETPLTFGTGTKLEIKR
notes: Humanized
In the case of B1, the binding result in experiment [1] and in experiment [2] was “binds” each time.

B2: 900792-huH1L3 (antibody, human IgG1, kappa, L234A L235A, V domains shown)
VH: QVQLQQSGAEVKKPGASVKVSCKASGYAFTNYLIEWVRQAPGQGLEWIGVINPESGDTYYSEKFQGRVTLTADKSTSTAYMELSSLRSEDSAVYFCAKESLTGSSYDYWGQGTTLTVSS
VL: DIQMTQSPSSLSASVGDRVTITCRASENIYSNLVWYQQKPGKAPQLLIYGARNLQSGVPSRFSGSGSGTQFTLTISSLQPEDFATYYCQHFYETPLTFGTGTKLEIKR
notes: Humanized
As to B2, the binding result in experiment [1] and in experiment [2] was “binds” throughout.

B3: 900792-huH2L1 (antibody, human IgG1, kappa, L234A L235A, V domains shown)
VH: QVQLVQSGAEVKKPGASVKVSCKASGYAFTNYLIEWVRQAPGQGLEWMGIINPESGDTYYAQKFQGRVTMTADKSTSTAYMELSSLRSEDSAVYFCAKESLTGSSYDYWGQGTTLTVSS
VL: DIQMTQSPSSLSASVGDRVTITCRASENIYSNLVWYQQKPGKAPQLLVYGARNLADGVPSRFSGSGSGTQFSLTISSLQPEDFATYYCQHFYETPLTFGTGTKLEIKR
notes: Humanized
With B3, the binding entry in experiment [1] and in experiment [2] was “binds” in each case.

B4: 900792-huH3L3 (antibody, human IgG1, kappa, L234A L235A, V domains shown)
VH: QVQLQQSGAEVKKPGASVKVSCKASGYAFTNYLIEWVRQAPGQGLEWMGVINPESGDTYYSQKFQGRVTMTADKSTSTAYMELSSLRSEDSAVYFCAKESLTGSSYDYWGQGTTLTVSS
VL: DIQMTQSPSSLSASVGDRVTITCRASENIYSNLVWYQQKPGKAPQLLIYGARNLQSGVPSRFSGSGSGTQFTLTISSLQPEDFATYYCQHFYETPLTFGTGTKLEIKR
notes: Humanized
Regarding B4, the binding entry in experiment [1] and in experiment [2] was “binds” each time.

B5: 900792-huH3L1 (antibody, human IgG1, kappa, L234A L235A, V domains shown)
VH: QVQLQQSGAEVKKPGASVKVSCKASGYAFTNYLIEWVRQAPGQGLEWMGVINPESGDTYYSQKFQGRVTMTADKSTSTAYMELSSLRSEDSAVYFCAKESLTGSSYDYWGQGTTLTVSS
VL: DIQMTQSPSSLSASVGDRVTITCRASENIYSNLVWYQQKPGKAPQLLVYGARNLADGVPSRFSGSGSGTQFSLTISSLQPEDFATYYCQHFYETPLTFGTGTKLEIKR
notes: Humanized
In the case of B5, the binding result in experiment [1] and in experiment [2] was “binds” throughout.

B6: 900792-huH3L2 (antibody, human IgG1, kappa, L234A L235A, V domains shown)
VH: QVQLQQSGAEVKKPGASVKVSCKASGYAFTNYLIEWVRQAPGQGLEWMGVINPESGDTYYSQKFQGRVTMTADKSTSTAYMELSSLRSEDSAVYFCAKESLTGSSYDYWGQGTTLTVSS
VL: DIQMTQSPSSLSASVGDRVTITCRASENIYSNLVWYQQKPGKAPQLLVYGARNLQSGVPSRFSGSGSGTQFSLTISSLQPEDFATYYCQHFYETPLTFGTGTKLEIKR
notes: Humanized
On to B6, for which the binding entry in experiment [1] and in experiment [2] was “binds” throughout.

B7: 900792-huH4L1 (antibody, human IgG1, kappa, L234A L235A, V domains shown)
VH: QVQLVQSGAEVKKPGASVKVSCKASGYAFTNYLIEWVRQAPGQGLEWMGIINPESGDTYYAQKFQGRVTLTADKSTSTAYMELSSLRSEDSAVYYCAKESLTGSSYDYWGQGTTLTVSS
VL: DIQMTQSPSSLSASVGDRVTITCRASENIYSNLVWYQQKPGKAPQLLVYGARNLADGVPSRFSGSGSGTQFSLTISSLQPEDFATYYCQHFYETPLTFGTGTKLEIKR
notes: Humanized
On to B7, for which the binding entry in experiment [1] and in experiment [2] was “binds” throughout.

B8: 900792-huH4L2 (antibody, human IgG1, kappa, L234A L235A, V domains shown)
VH: QVQLVQSGAEVKKPGASVKVSCKASGYAFTNYLIEWVRQAPGQGLEWMGIINPESGDTYYAQKFQGRVTLTADKSTSTAYMELSSLRSEDSAVYYCAKESLTGSSYDYWGQGTTLTVSS
VL: DIQMTQSPSSLSASVGDRVTITCRASENIYSNLVWYQQKPGKAPQLLVYGARNLQSGVPSRFSGSGSGTQFSLTISSLQPEDFATYYCQHFYETPLTFGTGTKLEIKR
notes: Humanized
Consider B8, for which the binding result in experiment [1] and in experiment [2] was “binds” throughout.

B9: 900792-huH1L1 (antibody, human IgG1, kappa, L234A L235A, V domains shown)
VH: QVQLQQSGAEVKKPGASVKVSCKASGYAFTNYLIEWVRQAPGQGLEWIGVINPESGDTYYSEKFQGRVTLTADKSTSTAYMELSSLRSEDSAVYFCAKESLTGSSYDYWGQGTTLTVSS
VL: DIQMTQSPSSLSASVGDRVTITCRASENIYSNLVWYQQKPGKAPQLLVYGARNLADGVPSRFSGSGSGTQFSLTISSLQPEDFATYYCQHFYETPLTFGTGTKLEIKR
notes: Humanized
Turning to B9, the binding entry in experiment [1] and in experiment [2] was “binds” each time.

B10: 900792-huH1L2 (antibody, human IgG1, kappa, L234A L235A, V domains shown)
VH: QVQLQQSGAEVKKPGASVKVSCKASGYAFTNYLIEWVRQAPGQGLEWIGVINPESGDTYYSEKFQGRVTLTADKSTSTAYMELSSLRSEDSAVYFCAKESLTGSSYDYWGQGTTLTVSS
VL: DIQMTQSPSSLSASVGDRVTITCRASENIYSNLVWYQQKPGKAPQLLVYGARNLQSGVPSRFSGSGSGTQFSLTISSLQPEDFATYYCQHFYETPLTFGTGTKLEIKR
notes: Humanized
Take B10: the binding result in experiment [1] and in experiment [2] was “binds” throughout.

B11: 900792-huH4L3 (antibody, human IgG1, kappa, L234A L235A, V domains shown)
VH: QVQLVQSGAEVKKPGASVKVSCKASGYAFTNYLIEWVRQAPGQGLEWMGIINPESGDTYYAQKFQGRVTLTADKSTSTAYMELSSLRSEDSAVYYCAKESLTGSSYDYWGQGTTLTVSS
VL: DIQMTQSPSSLSASVGDRVTITCRASENIYSNLVWYQQKPGKAPQLLIYGARNLQSGVPSRFSGSGSGTQFTLTISSLQPEDFATYYCQHFYETPLTFGTGTKLEIKR
notes: Humanized
As for B11, the binding result in experiment [1] and in experiment [2] was “binds” each time.

B12: 900792-huH2L3 (antibody, human IgG1, kappa, L234A L235A, V domains shown)
VH: QVQLVQSGAEVKKPGASVKVSCKASGYAFTNYLIEWVRQAPGQGLEWMGIINPESGDTYYAQKFQGRVTMTADKSTSTAYMELSSLRSEDSAVYFCAKESLTGSSYDYWGQGTTLTVSS
VL: DIQMTQSPSSLSASVGDRVTITCRASENIYSNLVWYQQKPGKAPQLLIYGARNLQSGVPSRFSGSGSGTQFTLTISSLQPEDFATYYCQHFYETPLTFGTGTKLEIKR
notes: Humanized
With B12, the binding entry in experiment [1] and in experiment [2] was “binds” throughout.

B13: 900792 chimera (antibody, human IgG1, kappa, L234A L235A, V domains shown)
VH: QVQLQQSGAELVRPGTSVKVSCKASGYAFTNYLIEWVKQRPGQGLEWIGVINPESGDTYYSEKFKGKATLTADKSSSTAYMQLSSLTSEDSAVYFCAKESLTGSSYDYWGQGTTLTVSS
VL: DIQMTQSPASLSASVGESVTITCRASENIYSNLVWYQQKQGKSPQLLVYGARNLADGVPSRFSGSGSGTQFSLKINSLQPEDFGNYYCQHFYETPLTFGTGTKLEIKR
notes: Human-mouse chimera of clone 77E6; human IgG1 constant region with L234A and L235A (Eu), human kappa
Turning to B13, the binding entry in experiment [2] was “binds”.
